Data source: PubChem BioAssay AID504774 (Drosophila RNAi Screening Center, 2011)
The screen tested about 23,000 reagents; below is an unselected part of those that have a named target and a result. 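Values are quantile-normalised luminescence on an arbitrary scale; higher means more cells surviving MMS.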 Reagents against one gene are numbered here. Names joined by + are all predicted targets of the reagent. Further read-outs or replicates are left out here.

Aim: 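Genes required for cells to withstand methyl methanesulphonate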 (primary screen)
Cell system: Drosophila Kc167 cells
Reagents: long dsRNA against Drosophila genes, about 0.25 µg dsRNA per well
Time to read-out: about 6 days: 3 days knock-down, then 3 days with or without MMS
Treatment: methyl methanesulphonate 0.004% (w/v) for 3 days after knock-down
Measurement: 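ATP-dependent luminescence as a measure of live cells in MMS-exposed wells, quantile normalised within each plate, with replicate values also given as a mean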
Direction: mean viability with MMS and viability with MMS: higher = more surviving cells after MMS

Semp1 (Seminal metalloprotease-1): mean viability with MMS = 3.66e6; viability with MMS, replicate 1 = 4.11e6
Scgdelta (Sarcoglycan delta): mean viability with MMS = 3.63e6; viability with MMS, replicate 1 = 4.16e6
TfIIS (RNA polymerase II elongation factor): mean viability with MMS = 3.46e6; viability with MMS, replicate 1 = 4.16e6
mr (morula) #1: mean viability with MMS = 3.35e6; viability with MMS, replicate 1 = 3.85e6
mr (morula) #2: mean viability with MMS = 3.48e6; viability with MMS, replicate 1 = 4.03e6
mei-W68 (meiotic W68): mean viability with MMS = 3.52e6; viability with MMS, replicate 1 = 4.02e6
CG9757 #1: mean viability with MMS = 3.60e6; viability with MMS, replicate 1 = 4.07e6
CG9757 #2: mean viability with MMS = 3.42e6; viability with MMS, replicate 1 = 3.90e6
Or33b (Odorant receptor 33b): mean viability with MMS = 3.47e6; viability with MMS, replicate 1 = 3.85e6
CG16904: mean viability with MMS = 3.57e6; viability with MMS, replicate 1 = 4.10e6
Actn3 (alpha actinin 3): mean viability with MMS = 3.63e6; viability with MMS, replicate 1 = 4.12e6
CG4612: mean viability with MMS = 3.40e6; viability with MMS, replicate 1 = 3.65e6
CG32835 (retired record): mean viability with MMS = 3.61e6; viability with MMS, replicate 1 = 3.97e6
CG42560 + CG42559: mean viability with MMS = 3.61e6; viability with MMS, replicate 1 = 4.03e6

2 entries already listed, arranged by “mean viability with MMS”, ascending.
mr (morula) #1: mean viability with MMS = 3.35e6; viability with MMS, replicate 1 = 3.85e6
TfIIS (RNA polymerase II elongation factor): mean viability with MMS = 3.46e6; viability with MMS, replicate 1 = 4.16e6
